No constants are given. Whether binding was seen depends on the method and setting. Some results given as binding are weak or reduced against the parent protein; the word gives no strength. Where a sequence is shown, tags or fusion partners need not be part of it.
Molecular target: TNFR2 (33-205 aa) protein, expressed in E. coli and renatured (Homo sapiens (Human)) (UniProt P20333)
Assay: complex prepared on Superdex 75 and crystallised; X-ray diffraction

Sequences of proteins named here, by UniProt entry; tags and fusion partners are left off. A change or cut given only in a name is not applied to a line headed by its entry.
UniProt P20333: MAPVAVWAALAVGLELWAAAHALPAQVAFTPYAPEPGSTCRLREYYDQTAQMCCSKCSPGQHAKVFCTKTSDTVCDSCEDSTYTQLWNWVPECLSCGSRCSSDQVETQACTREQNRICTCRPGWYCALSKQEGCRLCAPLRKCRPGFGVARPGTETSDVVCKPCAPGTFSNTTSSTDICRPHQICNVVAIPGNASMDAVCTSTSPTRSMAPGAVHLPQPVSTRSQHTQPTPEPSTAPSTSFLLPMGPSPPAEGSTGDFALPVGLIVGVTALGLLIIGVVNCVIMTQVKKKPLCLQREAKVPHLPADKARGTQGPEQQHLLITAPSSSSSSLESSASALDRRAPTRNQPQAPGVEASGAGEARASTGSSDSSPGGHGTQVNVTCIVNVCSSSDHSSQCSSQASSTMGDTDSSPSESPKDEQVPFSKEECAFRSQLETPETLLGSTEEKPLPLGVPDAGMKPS

binding: binds
B1: 161-hVH5-48 nanobody with the Fc removed by papain digestion (VHH)
VHH: EVQLVESGGGLVQPGGSLRLSCAASGSIRFINDMGWYRQAPGKGLELVAAIGRGGGSTNYADSVKGRFTISRDNAKNTLYLQMNSLRAEDTAVYYCHAEISQLGYAFRDYWGQGTLVTVSS

From patent US20250043016A1 (SANYOU BIOPHARMACEUTICALS, published 2025)
